# These are yes or no findings as the source states them, for the method shown. Binding seen in cells or lysates may run through a third protein. Some results given as binding are weak or reduced against the parent protein; the word gives no strength. For some of these results: Where a sequence is shown, tags or fusion partners need not be part of it.
# By UniProt entry, the sequences of proteins in these tests, tags left out.
# UniProt O60934: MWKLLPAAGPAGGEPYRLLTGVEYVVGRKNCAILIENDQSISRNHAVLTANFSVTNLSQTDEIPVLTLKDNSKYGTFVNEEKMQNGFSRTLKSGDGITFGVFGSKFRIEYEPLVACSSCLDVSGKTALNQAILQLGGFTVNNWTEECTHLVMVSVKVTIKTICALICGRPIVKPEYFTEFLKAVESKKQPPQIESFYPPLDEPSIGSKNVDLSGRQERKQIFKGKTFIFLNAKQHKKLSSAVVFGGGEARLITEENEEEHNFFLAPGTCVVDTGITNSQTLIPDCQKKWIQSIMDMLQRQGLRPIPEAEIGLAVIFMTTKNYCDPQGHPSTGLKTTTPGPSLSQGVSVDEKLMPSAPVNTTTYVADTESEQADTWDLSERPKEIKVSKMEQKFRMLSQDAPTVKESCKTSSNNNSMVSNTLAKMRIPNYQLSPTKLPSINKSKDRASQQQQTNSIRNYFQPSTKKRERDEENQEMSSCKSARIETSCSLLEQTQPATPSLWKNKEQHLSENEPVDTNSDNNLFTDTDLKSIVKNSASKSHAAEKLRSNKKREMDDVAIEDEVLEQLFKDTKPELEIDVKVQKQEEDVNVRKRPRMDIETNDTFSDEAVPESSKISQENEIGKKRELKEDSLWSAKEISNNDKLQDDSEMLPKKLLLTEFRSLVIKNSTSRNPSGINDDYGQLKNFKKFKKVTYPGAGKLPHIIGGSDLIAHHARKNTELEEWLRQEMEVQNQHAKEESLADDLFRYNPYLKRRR
# UniProt Q92878: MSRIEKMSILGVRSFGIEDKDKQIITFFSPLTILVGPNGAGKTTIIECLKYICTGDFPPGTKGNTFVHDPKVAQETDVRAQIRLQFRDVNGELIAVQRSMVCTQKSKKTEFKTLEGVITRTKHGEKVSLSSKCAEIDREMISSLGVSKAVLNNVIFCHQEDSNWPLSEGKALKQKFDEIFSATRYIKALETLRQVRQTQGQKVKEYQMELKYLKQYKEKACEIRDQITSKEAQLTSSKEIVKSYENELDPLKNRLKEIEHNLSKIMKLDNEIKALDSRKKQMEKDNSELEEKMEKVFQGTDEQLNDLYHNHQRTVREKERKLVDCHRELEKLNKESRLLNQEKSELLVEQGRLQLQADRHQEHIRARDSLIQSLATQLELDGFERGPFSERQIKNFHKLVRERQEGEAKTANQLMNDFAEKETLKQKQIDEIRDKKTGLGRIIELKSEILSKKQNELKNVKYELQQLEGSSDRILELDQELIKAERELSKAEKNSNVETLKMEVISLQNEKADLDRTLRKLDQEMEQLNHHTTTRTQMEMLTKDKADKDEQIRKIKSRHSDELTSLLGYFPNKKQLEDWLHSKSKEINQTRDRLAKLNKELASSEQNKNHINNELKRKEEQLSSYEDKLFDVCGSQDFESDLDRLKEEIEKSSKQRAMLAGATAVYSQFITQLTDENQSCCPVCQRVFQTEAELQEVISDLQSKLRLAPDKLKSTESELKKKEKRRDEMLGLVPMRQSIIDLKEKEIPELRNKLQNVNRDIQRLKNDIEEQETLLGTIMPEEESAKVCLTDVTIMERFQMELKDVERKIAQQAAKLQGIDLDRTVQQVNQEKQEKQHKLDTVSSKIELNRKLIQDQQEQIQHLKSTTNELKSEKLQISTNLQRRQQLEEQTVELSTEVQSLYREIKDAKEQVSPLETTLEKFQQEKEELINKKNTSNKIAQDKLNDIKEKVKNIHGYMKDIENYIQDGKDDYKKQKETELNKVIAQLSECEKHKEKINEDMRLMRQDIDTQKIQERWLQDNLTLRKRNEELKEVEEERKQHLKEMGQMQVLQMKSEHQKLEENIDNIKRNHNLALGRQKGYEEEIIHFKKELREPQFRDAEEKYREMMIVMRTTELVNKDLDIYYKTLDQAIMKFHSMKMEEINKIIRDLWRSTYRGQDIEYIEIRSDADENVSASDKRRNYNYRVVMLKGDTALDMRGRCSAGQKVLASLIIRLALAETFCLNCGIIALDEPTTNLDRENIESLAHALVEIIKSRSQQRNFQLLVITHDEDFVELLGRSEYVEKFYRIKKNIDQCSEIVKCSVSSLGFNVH
# UniProt P31749: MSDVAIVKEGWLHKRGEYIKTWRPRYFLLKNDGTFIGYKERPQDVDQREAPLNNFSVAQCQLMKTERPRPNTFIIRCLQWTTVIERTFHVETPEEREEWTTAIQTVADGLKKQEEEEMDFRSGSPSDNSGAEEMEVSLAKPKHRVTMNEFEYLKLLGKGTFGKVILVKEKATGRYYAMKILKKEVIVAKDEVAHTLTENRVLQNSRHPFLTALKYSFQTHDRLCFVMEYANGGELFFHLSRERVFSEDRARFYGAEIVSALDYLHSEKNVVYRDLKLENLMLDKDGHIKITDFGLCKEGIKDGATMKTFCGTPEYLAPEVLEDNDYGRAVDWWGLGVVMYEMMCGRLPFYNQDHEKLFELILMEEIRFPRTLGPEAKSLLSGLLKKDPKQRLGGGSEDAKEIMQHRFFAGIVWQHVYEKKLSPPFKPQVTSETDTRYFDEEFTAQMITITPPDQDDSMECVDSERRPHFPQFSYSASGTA
# Assays:
# [1] = biological target: T1, FLAG-MRE11 WT (UniProt P49959); assay: co-IP; anti-FLAG (M2) immunoprecipitation of FLAG-MRE11 from extracts of GC92 cells overexpressing HA-PKB and FLAG-MRE11; 25 mM Tris-HCl pH 7.5, 150 mM NaCl, 1 mM EDTA, 0.5% NP40; extracts treated with DNase I; HA-PKB detected by anti-HA western blot
# T1 sequence: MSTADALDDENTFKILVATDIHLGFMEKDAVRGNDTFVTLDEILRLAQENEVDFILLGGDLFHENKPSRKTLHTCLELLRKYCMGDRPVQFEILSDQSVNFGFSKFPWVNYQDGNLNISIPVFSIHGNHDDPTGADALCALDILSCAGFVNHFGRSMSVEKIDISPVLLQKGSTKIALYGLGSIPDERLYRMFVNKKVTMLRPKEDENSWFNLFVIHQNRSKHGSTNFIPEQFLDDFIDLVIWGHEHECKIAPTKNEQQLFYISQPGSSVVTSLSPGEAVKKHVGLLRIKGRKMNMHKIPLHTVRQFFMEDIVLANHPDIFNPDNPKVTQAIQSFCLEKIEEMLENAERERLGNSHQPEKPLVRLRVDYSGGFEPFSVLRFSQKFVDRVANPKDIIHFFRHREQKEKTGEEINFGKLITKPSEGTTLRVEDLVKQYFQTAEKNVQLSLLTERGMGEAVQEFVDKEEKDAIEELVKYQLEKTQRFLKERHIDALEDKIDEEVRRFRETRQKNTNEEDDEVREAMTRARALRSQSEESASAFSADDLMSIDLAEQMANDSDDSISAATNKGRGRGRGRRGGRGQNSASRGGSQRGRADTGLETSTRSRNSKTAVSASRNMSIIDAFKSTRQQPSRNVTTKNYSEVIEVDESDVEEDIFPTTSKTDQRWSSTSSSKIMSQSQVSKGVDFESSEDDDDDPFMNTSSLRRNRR
# [2] = biological target: NBS1 (human (endogenous in GC92)) (UniProt O60934); assay: proximity ligation; Duolink in situ PLA on fixed, permeabilised cells; antibody pairs anti-MRE11/anti-NBS1, anti-MRE11/anti-PKB, anti-RAD50/anti-PKB, anti-NBS1/anti-HA; with or without 5 Gy IR, with or without PKB or PKB kd expression
# [3] = biological target: T2, MRE11 (human (endogenous in GC92)) (UniProt P49959); assay: as above
# T2 sequence: T1 sequence
# [4] = biological target: RAD50 (human (endogenous in GC92)) (UniProt Q92878); assay: as above
binding [1],binding [2],binding [3],binding [4],Substance
binds,binds,,,HA-PKB (from UniProt P31749 1-480) (enzyme)
,,binds,binds,PKB (from UniProt P31749 1-480) (enzyme)

# — paper PMC12143594
